{"source": "patent US20040063729A1", "about": "“Triazolopyrimidines” (priority 2000, published 2004)", "tested_on": "Botrytis cinera", "assay": "Test of foliar spray effect against Botrytis cinera", "type": "in vivo", "settings": "active compound concentration of 500 ppm; foliar spray on kidney beans, inoculation one day after spraying, evaluated 5 days after the inoculation; average of 3 replications", "note": "Some entries share one result that the patent states for a list of compounds."}
{"smiles": "Clc1ccc(Cc2c(Cl)nc3ncnn3c2Cl)cc1", "note": "[I-95, 5,7-dichloro-6-(4-chlorobenzyl)[1,2,4]triazolo[1,5-a]pyrimidine]", "values": [{"measurement": "control value", "value": "more than 80%"}]}
